Measured values published in the supplement of paper PMC10849652.
The other results are listed elsewhere or left out.

By UniProt entry, the sequences of proteins in these tests, tags left out. Where a name states a change or a piece, a line headed by the entry shows the natural chain unless it says otherwise.
UniProt Q9HB90, whole entry, looked up: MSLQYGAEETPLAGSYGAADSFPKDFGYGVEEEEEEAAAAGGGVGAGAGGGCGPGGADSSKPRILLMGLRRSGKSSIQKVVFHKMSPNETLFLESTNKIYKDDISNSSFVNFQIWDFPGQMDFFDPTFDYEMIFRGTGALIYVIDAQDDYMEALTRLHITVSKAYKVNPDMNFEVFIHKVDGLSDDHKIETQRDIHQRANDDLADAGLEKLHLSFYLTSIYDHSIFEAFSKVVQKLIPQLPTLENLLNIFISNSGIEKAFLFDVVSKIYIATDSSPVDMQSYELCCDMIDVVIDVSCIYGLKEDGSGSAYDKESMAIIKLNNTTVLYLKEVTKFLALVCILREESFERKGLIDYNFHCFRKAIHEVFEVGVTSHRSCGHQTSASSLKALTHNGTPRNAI
UniProt Q6NW29: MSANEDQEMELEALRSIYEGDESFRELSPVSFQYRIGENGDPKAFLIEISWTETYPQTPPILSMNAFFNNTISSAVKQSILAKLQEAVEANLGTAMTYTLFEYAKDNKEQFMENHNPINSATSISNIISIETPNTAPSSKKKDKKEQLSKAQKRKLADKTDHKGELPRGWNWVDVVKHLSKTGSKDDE
UniProt Q8IZ73: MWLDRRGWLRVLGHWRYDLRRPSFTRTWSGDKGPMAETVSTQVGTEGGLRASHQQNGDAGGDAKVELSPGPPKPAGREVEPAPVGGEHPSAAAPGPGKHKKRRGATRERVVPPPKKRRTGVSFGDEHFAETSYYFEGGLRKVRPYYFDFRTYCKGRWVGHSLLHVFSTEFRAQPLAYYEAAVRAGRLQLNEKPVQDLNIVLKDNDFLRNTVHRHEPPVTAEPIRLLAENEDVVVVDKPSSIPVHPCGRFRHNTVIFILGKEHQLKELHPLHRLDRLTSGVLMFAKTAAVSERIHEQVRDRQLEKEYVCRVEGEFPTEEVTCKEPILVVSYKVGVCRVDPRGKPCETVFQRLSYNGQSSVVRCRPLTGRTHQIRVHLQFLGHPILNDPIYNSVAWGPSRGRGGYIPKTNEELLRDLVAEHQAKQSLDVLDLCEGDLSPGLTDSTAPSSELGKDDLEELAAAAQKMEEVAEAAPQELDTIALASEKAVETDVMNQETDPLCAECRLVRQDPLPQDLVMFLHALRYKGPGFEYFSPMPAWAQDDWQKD
UniProt Q5VZM2, whole entry, looked up: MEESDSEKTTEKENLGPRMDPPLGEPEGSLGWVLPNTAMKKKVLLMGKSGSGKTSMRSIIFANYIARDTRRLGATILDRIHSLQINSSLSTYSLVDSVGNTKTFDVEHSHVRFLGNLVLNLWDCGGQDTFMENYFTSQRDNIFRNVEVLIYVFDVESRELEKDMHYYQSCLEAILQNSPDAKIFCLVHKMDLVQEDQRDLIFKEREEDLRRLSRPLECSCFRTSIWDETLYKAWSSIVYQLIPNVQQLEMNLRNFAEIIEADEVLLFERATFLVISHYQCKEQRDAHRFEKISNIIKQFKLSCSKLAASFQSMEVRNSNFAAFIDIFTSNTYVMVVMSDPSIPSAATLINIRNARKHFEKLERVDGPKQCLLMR
UniProt Q8N488: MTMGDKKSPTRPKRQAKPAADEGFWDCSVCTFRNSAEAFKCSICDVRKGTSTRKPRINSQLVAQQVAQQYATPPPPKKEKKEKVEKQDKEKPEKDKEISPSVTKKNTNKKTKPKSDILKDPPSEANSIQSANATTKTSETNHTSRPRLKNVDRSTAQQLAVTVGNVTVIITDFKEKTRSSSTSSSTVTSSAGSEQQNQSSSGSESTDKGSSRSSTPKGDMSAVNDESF
UniProt Q9P2E9: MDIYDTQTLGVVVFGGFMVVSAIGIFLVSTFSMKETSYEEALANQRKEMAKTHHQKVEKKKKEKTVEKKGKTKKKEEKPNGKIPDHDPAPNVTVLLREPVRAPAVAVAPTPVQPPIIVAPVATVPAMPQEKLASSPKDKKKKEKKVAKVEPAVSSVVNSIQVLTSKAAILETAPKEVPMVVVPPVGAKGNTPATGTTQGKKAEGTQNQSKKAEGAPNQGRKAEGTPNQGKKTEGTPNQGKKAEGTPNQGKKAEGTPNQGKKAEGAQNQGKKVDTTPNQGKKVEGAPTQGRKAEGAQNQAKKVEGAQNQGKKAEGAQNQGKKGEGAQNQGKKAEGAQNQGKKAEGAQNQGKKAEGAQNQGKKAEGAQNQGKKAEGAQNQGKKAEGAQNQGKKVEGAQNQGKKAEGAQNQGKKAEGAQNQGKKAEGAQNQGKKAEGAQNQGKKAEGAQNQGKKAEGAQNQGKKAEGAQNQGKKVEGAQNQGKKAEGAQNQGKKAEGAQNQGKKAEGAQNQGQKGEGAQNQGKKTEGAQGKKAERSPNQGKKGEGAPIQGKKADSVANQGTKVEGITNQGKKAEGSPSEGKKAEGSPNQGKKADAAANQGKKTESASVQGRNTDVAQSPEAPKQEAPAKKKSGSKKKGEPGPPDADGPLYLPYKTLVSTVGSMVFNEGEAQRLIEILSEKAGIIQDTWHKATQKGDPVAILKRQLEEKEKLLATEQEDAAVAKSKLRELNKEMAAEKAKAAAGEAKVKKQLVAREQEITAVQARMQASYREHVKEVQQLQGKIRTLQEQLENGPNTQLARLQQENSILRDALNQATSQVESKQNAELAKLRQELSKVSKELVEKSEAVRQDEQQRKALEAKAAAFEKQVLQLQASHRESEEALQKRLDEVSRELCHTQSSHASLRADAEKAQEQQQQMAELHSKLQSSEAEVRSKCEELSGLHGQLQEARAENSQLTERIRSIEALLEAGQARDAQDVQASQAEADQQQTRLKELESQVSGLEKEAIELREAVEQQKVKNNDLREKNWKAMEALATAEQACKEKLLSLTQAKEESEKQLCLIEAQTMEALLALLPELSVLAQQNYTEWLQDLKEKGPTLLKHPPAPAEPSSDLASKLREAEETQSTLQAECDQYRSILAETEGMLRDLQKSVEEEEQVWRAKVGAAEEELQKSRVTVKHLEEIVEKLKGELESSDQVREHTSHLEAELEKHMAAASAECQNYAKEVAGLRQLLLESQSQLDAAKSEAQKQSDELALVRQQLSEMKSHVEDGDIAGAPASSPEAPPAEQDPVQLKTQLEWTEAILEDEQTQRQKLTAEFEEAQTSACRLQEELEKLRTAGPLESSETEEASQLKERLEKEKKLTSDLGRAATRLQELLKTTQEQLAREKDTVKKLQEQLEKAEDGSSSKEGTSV
UniProt Q9NQC3: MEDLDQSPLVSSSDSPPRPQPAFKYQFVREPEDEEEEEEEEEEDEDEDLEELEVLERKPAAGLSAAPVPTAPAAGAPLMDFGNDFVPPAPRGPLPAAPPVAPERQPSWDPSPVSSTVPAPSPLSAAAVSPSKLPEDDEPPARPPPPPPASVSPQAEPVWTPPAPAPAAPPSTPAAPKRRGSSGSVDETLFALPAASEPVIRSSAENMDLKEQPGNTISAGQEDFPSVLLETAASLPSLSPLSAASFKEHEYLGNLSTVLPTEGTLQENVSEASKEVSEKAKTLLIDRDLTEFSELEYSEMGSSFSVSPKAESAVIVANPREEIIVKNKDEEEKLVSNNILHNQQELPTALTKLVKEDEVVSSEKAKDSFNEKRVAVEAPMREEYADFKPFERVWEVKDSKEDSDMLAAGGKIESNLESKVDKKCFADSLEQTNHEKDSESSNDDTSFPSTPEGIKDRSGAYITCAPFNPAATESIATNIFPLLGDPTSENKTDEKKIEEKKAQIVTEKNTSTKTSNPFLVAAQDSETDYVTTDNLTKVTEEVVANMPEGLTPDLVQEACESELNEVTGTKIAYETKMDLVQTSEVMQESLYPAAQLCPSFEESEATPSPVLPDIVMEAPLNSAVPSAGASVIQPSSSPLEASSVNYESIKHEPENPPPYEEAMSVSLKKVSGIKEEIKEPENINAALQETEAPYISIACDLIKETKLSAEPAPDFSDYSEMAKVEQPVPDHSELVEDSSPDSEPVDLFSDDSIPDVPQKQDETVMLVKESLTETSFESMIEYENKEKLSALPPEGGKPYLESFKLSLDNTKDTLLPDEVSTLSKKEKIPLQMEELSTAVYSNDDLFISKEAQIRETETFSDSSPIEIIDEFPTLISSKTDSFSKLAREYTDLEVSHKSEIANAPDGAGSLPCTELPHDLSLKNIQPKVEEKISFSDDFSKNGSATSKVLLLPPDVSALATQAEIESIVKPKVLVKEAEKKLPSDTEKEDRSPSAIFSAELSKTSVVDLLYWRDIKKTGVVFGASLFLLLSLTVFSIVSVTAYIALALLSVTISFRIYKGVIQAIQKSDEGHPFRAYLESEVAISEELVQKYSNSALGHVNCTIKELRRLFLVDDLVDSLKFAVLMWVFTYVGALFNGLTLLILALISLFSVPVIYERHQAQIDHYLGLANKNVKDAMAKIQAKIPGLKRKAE
UniProt P10301: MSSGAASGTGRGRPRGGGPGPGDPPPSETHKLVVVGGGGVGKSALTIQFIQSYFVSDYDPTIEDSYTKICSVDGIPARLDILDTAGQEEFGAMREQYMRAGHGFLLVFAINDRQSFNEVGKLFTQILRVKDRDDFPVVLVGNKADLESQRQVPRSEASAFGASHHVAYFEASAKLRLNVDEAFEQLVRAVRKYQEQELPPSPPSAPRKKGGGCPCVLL
UniProt Q92622: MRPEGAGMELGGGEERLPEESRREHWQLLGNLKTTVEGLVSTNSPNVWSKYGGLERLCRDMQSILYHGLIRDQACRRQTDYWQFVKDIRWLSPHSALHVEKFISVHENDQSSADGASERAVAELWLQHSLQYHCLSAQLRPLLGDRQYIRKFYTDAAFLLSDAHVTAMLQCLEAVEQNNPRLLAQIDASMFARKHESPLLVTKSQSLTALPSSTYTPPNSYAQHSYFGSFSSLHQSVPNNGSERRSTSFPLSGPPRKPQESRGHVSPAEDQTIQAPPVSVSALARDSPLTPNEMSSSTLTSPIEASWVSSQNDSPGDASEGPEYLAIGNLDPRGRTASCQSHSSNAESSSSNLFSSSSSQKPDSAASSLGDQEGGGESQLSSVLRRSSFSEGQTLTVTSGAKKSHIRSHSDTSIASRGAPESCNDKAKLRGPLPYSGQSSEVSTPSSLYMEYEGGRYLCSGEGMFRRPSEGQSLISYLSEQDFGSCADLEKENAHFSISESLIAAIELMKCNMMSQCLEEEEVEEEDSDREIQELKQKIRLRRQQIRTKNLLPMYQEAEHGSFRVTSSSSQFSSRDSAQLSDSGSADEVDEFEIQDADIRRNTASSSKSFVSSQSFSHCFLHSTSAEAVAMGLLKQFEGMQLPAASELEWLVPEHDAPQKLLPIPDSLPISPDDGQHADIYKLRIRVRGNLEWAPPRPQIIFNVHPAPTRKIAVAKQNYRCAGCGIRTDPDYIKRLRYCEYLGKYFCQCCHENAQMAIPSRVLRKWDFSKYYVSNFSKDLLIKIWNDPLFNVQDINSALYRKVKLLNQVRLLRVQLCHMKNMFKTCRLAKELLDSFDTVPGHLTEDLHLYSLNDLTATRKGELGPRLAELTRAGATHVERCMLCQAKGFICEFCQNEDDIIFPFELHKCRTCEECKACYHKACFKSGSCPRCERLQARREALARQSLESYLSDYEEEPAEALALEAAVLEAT
UniProt Q15404: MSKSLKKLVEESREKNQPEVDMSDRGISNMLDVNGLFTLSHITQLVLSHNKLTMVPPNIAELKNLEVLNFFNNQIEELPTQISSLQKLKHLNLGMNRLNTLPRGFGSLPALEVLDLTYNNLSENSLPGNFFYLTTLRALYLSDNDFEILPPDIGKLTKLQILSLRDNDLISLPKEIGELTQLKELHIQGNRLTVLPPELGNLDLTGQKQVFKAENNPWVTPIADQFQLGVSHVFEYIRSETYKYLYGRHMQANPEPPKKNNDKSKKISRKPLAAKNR
UniProt P05387, whole entry, looked up: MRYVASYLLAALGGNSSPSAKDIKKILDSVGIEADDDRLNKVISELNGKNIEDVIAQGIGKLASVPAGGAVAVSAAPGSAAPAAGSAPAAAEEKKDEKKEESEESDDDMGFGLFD
UniProt Q01196, whole entry, looked up: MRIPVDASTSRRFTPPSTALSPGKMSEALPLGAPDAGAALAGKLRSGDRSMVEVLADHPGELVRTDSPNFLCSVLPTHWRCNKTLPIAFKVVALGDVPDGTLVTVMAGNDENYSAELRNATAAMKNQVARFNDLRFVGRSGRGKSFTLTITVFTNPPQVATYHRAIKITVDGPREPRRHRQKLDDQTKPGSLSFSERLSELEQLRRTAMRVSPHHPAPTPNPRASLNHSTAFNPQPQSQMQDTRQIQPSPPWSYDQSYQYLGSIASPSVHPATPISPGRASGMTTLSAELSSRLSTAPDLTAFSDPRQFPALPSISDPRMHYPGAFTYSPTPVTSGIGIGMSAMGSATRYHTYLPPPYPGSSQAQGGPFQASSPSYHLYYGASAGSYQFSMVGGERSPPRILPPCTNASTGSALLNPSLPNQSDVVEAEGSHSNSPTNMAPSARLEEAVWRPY

Tests used:
Experiment in all cases: log2 fold change, soluble protein after heating vs DMSO (PISA); higher = thermal stabilisation; K562 lysate, 10 uM; active = over 0.2 and 3.5 SD of the protein, either way, in both replicates (recomputed)
ibrutinib = compound: C=CC(=O)N1CCC[C@@H](n2nc(-c3ccc(Oc4ccccc4)cc3)c3c(N)ncnc32)C1 [ibrutinib]
Procedure, shortened: (§1)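 Soluble protein was defined as the supernatant remaining after 21,000xg for 90 min, following pooling of heated aliquots and adjustment to 0.5% NP-40 at 4°C. Before that, crude K562 extract at 1 mg/mL protein in PBS pH 7.4 with 1 mM MgCl2 was treated with 10 μM compound for 30 min and heated for 3 min across 48°C-58°C. Quantification used TMTpro 16plex LC-MS/MS with channel sums equalised, and values are log-two fold changes in thermal stability relative to solvent controls from duplicates.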

[1] = compound: CC(=O)c1cnc2ccc(-c3cc(Cl)c(O)c(Cl)c3)nc2c1N[C@H]1CC[C@H](CN(C)C)CC1
Procedure, shortened: as §1

ralimetinib = compound: CC(C)(C)Cn1c(N)nc2ccc(-c3[nH]c(C(C)(C)C)nc3-c3ccc(F)cc3)nc21 [ralimetinib]
Procedure, shortened: as §1

[2] = compound: CC(C)(O)CC(=O)NCCn1ccc2ncnc(Nc3ccc(Oc4cccc(C(F)(F)F)c4)c(Cl)c3)c21
Procedure, shortened: as §1

[3] = compound: CC(C)C1=C2N=C(C=C(N2N=C1)NCC3=CC=CC=C3)NCCCCCCN
Procedure, shortened: as §1

[4] = compound: CC1=C(C(CC(=O)N1)C2=CC=C(C=C2)C(F)(F)F)C(=O)NC3=C(C=C4C(=C3)C=NN4)F
Procedure, shortened: as §1

[5] = compound: CC1=C(C2=C(C=C1)C(=O)C3=CC=CC=C3N2CCCN)C
Procedure, shortened: as §1

[6] = compound: CC1=C(C=C(C=C1)NC(=O)C2=CC(=CC=C2)C(C)(C)C#N)NC3=CC4=C(C=C3)N=CN(C4=O)C
Procedure, shortened: as §1

[7] = compound: CC1=C(C=C(C=C1)NC(=O)C2=CC(=CC=C2)N(C)C)NC(=O)C3=CC=C(C=C3)O
Procedure, shortened: as §1

[8] = compound: CC1=CC=C(C=C1)SC2=C3C=C(SC3=CN=C2)C(=O)N
Procedure, shortened: as §1

vemurafenib = compound: CCCS(=O)(=O)Nc1ccc(F)c(C(=O)c2c[nH]c3ncc(-c4ccc(Cl)cc4)cc23)c1F [vemurafenib]
Procedure, shortened: as §1

[9] = compound: CCCS(=O)(=O)Nc1ccc(F)c(C(=O)c2c[nH]c3ncc(Cl)cc23)c1F
Procedure, shortened: as §1

barasertib = compound: CCN(CCCOc1ccc2c(Nc3cc(CC(=O)Nc4cccc(F)c4)[nH]n3)ncnc2c1)CCOP(=O)(O)O [barasertib]
Procedure, shortened: as §1

[10] = compound: CC[C@@H]1C(=O)N(C)c2cnc(Nc3ccc(C(=O)NC4CCN(C)CC4)cc3OC)nc2N1C1CCCC1
Procedure, shortened: as §1

volasertib = compound: CC[C@@H]1C(=O)N(C)c2cnc(Nc3ccc(C(=O)N[C@H]4CC[C@H](N5CCN(CC6CC6)CC5)CC4)cc3OC)nc2N1C(C)C [volasertib]
Procedure, shortened: as §1

[11] = compound: CCn1c(C(=O)N(C2CC2)C2CC2)cc2c3c(ncn3C)c(Nc3cc(C)n(C)n3)nc21
Procedure, shortened: as §1

[12] = compound: CCn1cc(-c2ccnc3[nH]c(-c4cccc(CN(C)C)c4)cc23)c(-c2ccc(NC(=O)N(C)C)cc2)n1
Procedure, shortened: as §1

[13] = compound: CN1CCC(CNc2ccc3ncc(-c4cccc(OC(F)(F)F)c4)n3n2)CC1
Procedure, shortened: as §1

saracatinib = compound: CN1CCN(CCOc2cc(OC3CCOCC3)c3c(Nc4c(Cl)ccc5c4OCO5)ncnc3c2)CC1 [saracatinib]
Procedure, shortened: as §1

sotrastaurin = compound: CN1CCN(c2nc(C3=C(c4c[nH]c5ccccc45)C(=O)NC3=O)c3ccccc3n2)CC1 [sotrastaurin]
Procedure, shortened: as §1

Measured: log2 fold change

RRAGC (UniProt Q9HB90)
inactive: ibrutinib -0.014 | [1] 0.014 | ralimetinib -0.004 | [2] -0.046 | [3] 0 | [4] 0.019 | [5] 0.038 | [6] 0.019 | [7] -0.016 | [8] -0.011 | vemurafenib 0.02 | [9] -0.002 | barasertib 0 | [10] 0.019 | volasertib -0.001 | [11] -0.04 | [12] -0.052 | [13] 0.115 | saracatinib 0.008 | sotrastaurin -0.018

RWDD4 (UniProt Q6NW29)
inactive: ibrutinib -0.032 | [1] 0.015 | ralimetinib -0.022 | [2] -0.013 | [3] -0.017 | [4] 0.047 | [5] -0.006 | [6] -0.028 | [7] 0.03 | [8] 0.011 | vemurafenib -0.028 | [9] 0.021 | barasertib -0.018 | [10] 0.004 | volasertib 0.014 | [11] 0.06 | [12] -0.084 | [13] 0.071 | saracatinib -0.021 | sotrastaurin 0.017

RPUSD2 (UniProt Q8IZ73)
inactive: ibrutinib 0.009 | [1] 0.003 | ralimetinib -0.009 | [2] -0.007 | [3] -0.028 | [4] 0.003 | [5] -0.021 | [6] 0.016 | [7] -0.029 | [8] -0.024 | vemurafenib 0.011 | [9] 0.021 | barasertib 0 | [10] -0.003 | volasertib -0.004 | [11] -0.007 | [12] -0.074 | [13] 0.04 | saracatinib 0.013 | sotrastaurin 0.002

RPS10 (UniProt P46783)
inactive: ibrutinib 0.023 | [1] -0.008 | ralimetinib 0.001 | [2] -0.004 | [3] 0.002 | [4] -0.004 | [5] -0.05 | [6] -0.007 | [7] 0.006 | [8] 0.004 | vemurafenib 0.023 | [9] 0.002 | barasertib -0.014 | [10] -0.002 | volasertib -0.031 | [11] -0.005 | [12] 0.026 | [13] -0.037 | saracatinib 0 | sotrastaurin 0.005

RRAGB (UniProt Q5VZM2)
inactive: ibrutinib -0.008 | [1] -0.022 | ralimetinib 0.034 | [2] -0.034 | [3] 0.008 | [4] -0.021 | [5] -0.043 | [6] -0.006 | [7] 0.003 | [8] -0.015 | vemurafenib -0.042 | [9] 0.044 | barasertib -0.013 | [10] -0.028 | volasertib 0.035 | [11] -0.011 | [12] -0.053 | [13] 0.073 | saracatinib 0.018 | sotrastaurin 0.017

Taken from the entries so far (four entries):
RRAGC (UniProt Q9HB90)
inactive: ibrutinib -0.014 | [1] 0.014 | ralimetinib -0.004 | [2] -0.046 | [3] 0 | [4] 0.019 | [5] 0.038 | [6] 0.019 | [7] -0.016 | [8] -0.011 | vemurafenib 0.02 | [9] -0.002 | barasertib 0 | [10] 0.019 | volasertib -0.001 | [11] -0.04 | [12] -0.052 | [13] 0.115 | saracatinib 0.008 | sotrastaurin -0.018

RWDD4 (UniProt Q6NW29)
inactive: ibrutinib -0.032 | [1] 0.015 | ralimetinib -0.022 | [2] -0.013 | [3] -0.017 | [4] 0.047 | [5] -0.006 | [6] -0.028 | [7] 0.03 | [8] 0.011 | vemurafenib -0.028 | [9] 0.021 | barasertib -0.018 | [10] 0.004 | volasertib 0.014 | [11] 0.06 | [12] -0.084 | [13] 0.071 | saracatinib -0.021 | sotrastaurin 0.017

RPUSD2 (UniProt Q8IZ73)
inactive: ibrutinib 0.009 | [1] 0.003 | ralimetinib -0.009 | [2] -0.007 | [3] -0.028 | [4] 0.003 | [5] -0.021 | [6] 0.016 | [7] -0.029 | [8] -0.024 | vemurafenib 0.011 | [9] 0.021 | barasertib 0 | [10] -0.003 | volasertib -0.004 | [11] -0.007 | [12] -0.074 | [13] 0.04 | saracatinib 0.013 | sotrastaurin 0.002

RPS10 (UniProt P46783)
inactive: ibrutinib 0.023 | [1] -0.008 | ralimetinib 0.001 | [2] -0.004 | [3] 0.002 | [4] -0.004 | [5] -0.05 | [6] -0.007 | [7] 0.006 | [8] 0.004 | vemurafenib 0.023 | [9] 0.002 | barasertib -0.014 | [10] -0.002 | volasertib -0.031 | [11] -0.005 | [12] 0.026 | [13] -0.037 | saracatinib 0 | sotrastaurin 0.005

Continuation.

RYBP (UniProt Q8N488)
inactive: ibrutinib -0.045 | [1] -0.009 | ralimetinib -0.055 | [2] -0.035 | [3] -0.034 | [4] 0.019 | [5] -0.043 | [6] 0.053 | [7] 0.063 | [8] -0.053 | vemurafenib 0.053 | [9] 0.004 | barasertib -0.013 | [10] 0.15 | volasertib 0.002 | [11] -0.038 | [12] -0.053 | [13] 0.02 | saracatinib -0.003 | sotrastaurin 0.056

RRBP1 (UniProt Q9P2E9)
inactive: ibrutinib 0.007 | [1] -0.02 | ralimetinib -0.01 | [2] -0.024 | [3] -0.021 | [4] 0.015 | [5] -0.016 | [6] -0.018 | [7] -0.008 | [8] 0 | vemurafenib -0.004 | [9] 0.021 | barasertib -0.002 | [10] 0.054 | volasertib -0.007 | [11] 0.01 | [12] 0.093 | [13] -0.078 | saracatinib 0.05 | sotrastaurin -0.018

RPS18 (UniProt P62269)
inactive: ibrutinib -0.016 | [1] 0.01 | ralimetinib -0.006 | [2] -0.02 | [3] 0.008 | [4] -0.037 | [5] -0.1 | [6] 0 | [7] -0.006 | [8] -0.012 | vemurafenib 0.006 | [9] 0.022 | barasertib -0.007 | [10] -0.014 | volasertib 0.018 | [11] 0.009 | [13] 0.063 | saracatinib 0.002 | sotrastaurin 0
active: [12] -0.219

RTN4 (UniProt Q9NQC3)
inactive: ibrutinib 0.029 | [1] 0.013 | ralimetinib 0.06 | [2] -0.017 | [3] -0.022 | [4] 0.007 | [5] -0.013 | [6] 0.022 | [7] -0.018 | [8] -0.01 | vemurafenib 0.039 | [9] 0.022 | barasertib 0.005 | [10] 0.037 | volasertib 0.043 | [11] -0.043 | [12] -0.169 | [13] 0.108 | saracatinib 0.053 | sotrastaurin 0.039

RRAS (UniProt P10301)
inactive: ibrutinib 0.023 | [1] 0.041 | ralimetinib 0.041 | [2] 0.026 | [3] -0.026 | [4] 0.001 | [5] 0.081 | [6] 0.015 | [7] 0.048 | [8] -0.017 | vemurafenib -0.026 | [9] -0.033 | barasertib 0.11 | [10] 0.011 | volasertib -0.017 | [11] -0.031 | [12] -0.005 | [13] 0.056 | saracatinib -0.01 | sotrastaurin 0.015

RUBCN (UniProt Q92622)
inactive: ibrutinib 0.056 | [1] -0.184 | ralimetinib -0.039 | [2] -0.138 | [3] 0.031 | [4] -0.101 | [5] 0.046 | [6] -0.024 | [7] 0.002 | [8] -0.185 | vemurafenib 0.069 | [9] 0.091 | barasertib 0.102 | [10] 0.235 | volasertib -0.14 | [11] 0.014 | [12] 0.01 | [13] 0.063 | saracatinib -0.026 | sotrastaurin -0.022

RSU1 (UniProt Q15404)
inactive: ibrutinib 0 | [1] 0.005 | ralimetinib -0.005 | [2] -0.02 | [3] 0.005 | [4] 0.019 | [5] -0.022 | [6] -0.017 | [7] -0.027 | [8] -0.012 | vemurafenib -0.006 | [9] 0.005 | barasertib -0.067 | [10] 0.026 | volasertib 0.022 | [11] 0.004 | [13] -0.143 | saracatinib -0.032 | sotrastaurin -0.019
active: [12] 0.405

RPLP2 (UniProt P05387)
inactive: ibrutinib 0.066 | [1] -0.026 | ralimetinib -0.006 | [2] -0.015 | [3] 0.014 | [4] -0.016 | [5] -0.025 | [6] 0.006 | [7] 0.016 | [8] 0.043 | vemurafenib 0.046 | [9] -0.004 | barasertib 0.079 | [10] -0.008 | volasertib 0.04 | [11] -0.023 | [12] 0.018 | [13] -0.058 | saracatinib 0.021 | sotrastaurin -0.003

RPL7 (UniProt P18124)
inactive: ibrutinib -0.021 | [1] -0.01 | ralimetinib -0.023 | [2] -0.007 | [3] 0.011 | [4] -0.01 | [5] -0.037 | [6] 0.003 | [7] -0.018 | [8] 0.03 | vemurafenib -0.002 | [9] -0.02 | barasertib -0.017 | [10] 0.024 | volasertib 0.002 | [11] -0.008 | [12] -0.029 | [13] 0.021 | saracatinib 0.003 | sotrastaurin -0.014

RUNX1 isoform 8 (UniProt Q01196)
inactive: ibrutinib -0.082 | [1] 0.035 | ralimetinib -0.025 | [2] 0.021 | [3] 0.011 | [4] 0.064 | [5] 0.038 | [6] -0.198 | [7] -0.043 | [8] -0.022 | vemurafenib -0.099 | [9] 0.062 | barasertib 0.011 | [10] -0.055 | volasertib -0.054 | [11] 0.069 | [12] 0.011 | [13] -0.018 | saracatinib 0.022 | sotrastaurin -0.132

RTN4 isoform 2 (UniProt Q9NQC3)
inactive: ibrutinib -0.017 | [1] 0.013 | ralimetinib 0.046 | [2] -0.016 | [3] -0.019 | [4] -0.025 | [5] -0.045 | [6] 0.024 | [7] -0.033 | [8] -0.001 | vemurafenib 0.134 | [9] 0 | barasertib -0.069 | [10] 0.118 | volasertib 0.052 | [11] 0.006 | [12] -0.069 | [13] 0.048 | saracatinib 0.035 | sotrastaurin 0.021
